# Percent effect of library compounds

The chains behind the UniProt entries cited, without tags or fusion partners.
UniProt P9WPC5, whole entry: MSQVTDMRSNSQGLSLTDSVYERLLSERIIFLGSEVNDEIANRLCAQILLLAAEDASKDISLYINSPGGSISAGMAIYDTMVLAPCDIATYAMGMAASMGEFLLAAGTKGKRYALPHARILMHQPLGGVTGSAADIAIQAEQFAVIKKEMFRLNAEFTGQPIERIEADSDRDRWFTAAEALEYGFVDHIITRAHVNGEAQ
UniProt P9WPC3, whole entry partner: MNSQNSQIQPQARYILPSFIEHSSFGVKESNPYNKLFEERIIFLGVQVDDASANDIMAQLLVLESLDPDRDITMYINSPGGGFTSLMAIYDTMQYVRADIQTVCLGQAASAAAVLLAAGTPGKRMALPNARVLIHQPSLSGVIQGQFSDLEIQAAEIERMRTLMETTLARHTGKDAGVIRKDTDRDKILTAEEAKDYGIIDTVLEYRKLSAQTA

Measurements from “University of Dundee, Small-Polar-MMV Screening Library” (2021), ChEMBL document CHEMBL3988442.

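Protease assay of ClpP1P2, read by the AMC dye that it sets free. Target: ClpP1P2, Mycobacterium tuberculosis (UniProt P9WPC5 and UniProt P9WPC3). Compounds at 50 µM. Higher reads as stronger inhibition, judged from the few compounds that gave an IC50. Most other retested compounds had strongly negative values. About 69,000 compounds were tested under these conditions; 0.015% (about 10) showed 50% or more at least once.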

Results are given as percent effect. How 0% and 100% were set is not recorded. Most values in the screen are low, and negative values occur. The compounds are a random part of those screened.

| # | Compound | effect |
|---|---|---|
| 1 | `CC(=O)N1CCCCC1c1nc(C)cc(-c2ccccc2C(=O)O)n1` (centres undefined) | -6.502 |
| 2 | `O=C(Cc1ccc(F)cc1)NCCNS(=O)(=O)C1CCCC1` | -4.101 |
| 3 | `CC(NC(=O)NC1CCN(CC2CCCC2)CC1)c1nccs1` (centres undefined) | 3.764 |
| 4 | `CC(C#N)CSc1ccccc1NCC(=O)NCc1cccs1` (centres undefined) | -15.36 |
| 5 | `O=C1Nc2ccccc2NC12CCN(c1cccc(C(F)(F)F)n1)CC2` | 18.21 |
| 6 | `Cc1ccc2cc(C(=O)NCCN3CCS(=O)(=O)CC3)c(C)nc2c1` | 2.803 |
| 7 | `CN(Cc1cc2c(cc1OC(F)F)OCO2)Cc1nccn1C` | -9.634 |
| 8 | `NC(=O)C(NC(=O)CSCc1ccc(Cl)s1)c1ccccc1` (centres undefined) | 2.508 |
| 9 | `CCn1cc(C(=O)NCc2csc(Br)c2)cn1` | -0.2781 |
| 10 | `COCC(=O)N1CCC(c2c(C(=O)N(C)C)sc3ncccc23)C1` (centres undefined) | 1.354 |
| 11 | `COCC1c2c(cnn2C)CCN1C(=O)c1cscn1` (centres undefined) | -1.315 |
| 12 | `O=C(NCc1cn2c(n1)CN(Cc1ccncc1)CC2)C1CCC1` | -0.6244 |
| 13 | `COCC1CN(Cc2csc(C)n2)Cc2nccn2C1` (centres undefined) | 5.473 |
| 14 | `c1cc(C2CCN(c3ncnc4c3CCNCC4)CC2)ccn1` | -18.52 |
| 15 | `O=C1CCCN1CCC1CCN(C2CCC3(CCNCC3)CC2)CC1` | -3.669 |
| 16 | `Cc1cc(C)cc(N(C)S(=O)(=O)c2cc3c(c(C(=O)O)c2)OCCO3)c1` | 0.6033 |
| 17 | `CCCc1nnc(C(=O)N(C)Cc2cnc3ccccn23)o1` | 9.68 |
| 18 | `FC(F)(F)c1cc(NCCCn2cccn2)nc(-c2cccnc2)n1` | -3.847 |
| 19 | `CN1CCN(C(CNC(=O)c2ccc(Cl)cc2F)c2cccs2)CC1` (centres undefined) | 6.121 |
| 20 | `Cc1ccccc1[C@@H]1CN(CCCS(=O)(=O)N(C)C)C[C@H]1C(=O)O` | -8.762 |
| 21 | `O=C1CC2(CCCCN2CC2CC2)CN1c1ccccc1` (centres undefined) | -2.368 |
| 22 | `c1ccc(-c2nc(CN3CCOC(Cn4cccn4)C3)no2)cc1` (centres undefined) | 0.7072 |
| 23 | `CC(C)n1c(C2CCCN(CC(=O)NC3CC3)C2)nc2ccccc21` (centres undefined) | 5.673 |
| 24 | `Cc1ccccc1CSc1nc(N)cc(N2CCOC(C(N)=O)C2)n1` (centres undefined) | -12.73 |
| 25 | `CC(C)c1nc(CCn2cncn2)n(-c2ccc3c(c2)OCCO3)n1` | -12.16 |
| 26 | `CC(C)N1CCOC(c2ccnc(N(C)C)n2)C1` (centres undefined) | -20.48 |
| 27 | `COc1cc(CNC(C)Cn2cccn2)cc(OC)c1` (centres undefined) | 4.21 |
| 28 | `Cc1cc(C(=O)N2CCCC(N3CCCCCC3)C2)nn1C(C)(C)C` (centres undefined) | 5.719 |
| 29 | `COc1ccc(CN(Cc2cnn(C)c2)CC(C)C)cn1` | -26.87 |
| 30 | `CCc1[nH]c2c(CNC(=O)C3CCS(=O)(=O)CC3)cc(C)cc2c1C` | -24.39 |
| 31 | `c1cnnc(-c2noc(COCC3CCCO3)n2)c1` (centres undefined) | 14.19 |
| 32 | `CN(CCCc1nccn1C)C(=O)C1COc2ccccc2C1` (centres undefined) | -12.98 |
| 33 | `COc1cc(CCC(=O)NC(C)C(=O)O)ccc1OCC(F)(F)F` (centres undefined) | 4.632 |
| 34 | `CCS(=O)(=O)NCCCNc1cc(N2CCCC2CO)ncn1` (centres undefined) | 5.407 |
| 35 | `Cc1ccc(-c2cc(C(=O)NCC3CCOC3)n[nH]2)s1` (centres undefined) | -9.036 |
| 36 | `Cc1noc(C)c1CCc1nc(C2CCOC2)no1` (centres undefined) | 7.459 |
| 37 | `CC(C)(C)c1cc(C[C@H]2CNCC[C@H]2CC(=O)Nc2ccccc2)no1` | -5.308 |
| 38 | `CC[S+](CC)[c-]1c(=O)[nH]c(=O)n(Cc2ccc(F)cc2)c1=O` | -18.05 |
| 39 | `CCN1C(=O)C2(CCOCC2)c2cc(NC(=O)c3cnccn3)ccc21` | -1.76 |
| 40 | `CN(Cc1ccco1)C1CCC12CCN(C(=O)c1ccncc1)CC2` (centres undefined) | -17.65 |
| 41 | `Cc1ccc(C)c(OC(C)C(=O)Nc2cccnc2)c1` (centres undefined) | -3.159 |
| 42 | `CCc1nnc2n1CCN(C(=O)c1cc3cc(C)ccc3[nH]1)C2` | -8.88 |
| 43 | `CC(C)(NCc1cccc(C(N)=O)c1)c1ccc2c(c1)OCO2` | 9.346 |
| 44 | `CCc1cccc(OCCn2cccc(C#N)c2=O)c1` | -11.15 |
| 45 | `CN1N=C(C(=O)N2CCCC(n3ccnc3)C2)CCC1=O` (centres undefined) | -17.58 |
| 46 | `Cn1cnc2cc(C(=O)N3CCC(c4ccccc4C(=O)O)C3)cnc21` (centres undefined) | -12.42 |
| 47 | `Cc1nc(CN2CCCC3(CCN(c4cccnc4)C3=O)C2)cs1` (centres undefined) | 13.15 |
| 48 | `Cc1ccc(C(C)NC(=O)CSCC(N)=O)cc1` (centres undefined) | -4.433 |
| 49 | `COCCN(CCOC)c1ncccc1Cl` | 1.973 |
| 50 | `COCCn1cc(NC(=O)C(C)CCc2ccccc2F)ccc1=O` (centres undefined) | -5.382 |
| 51 | `CN(Cc1ccccc1F)C(=O)COC(=O)c1cc(Cl)c[nH]1` | 6.567 |
| 52 | `CCOCC1CN(Cc2ccccn2)Cc2nn(CC3CC3)cc21` (centres undefined) | -6.127 |
| 53 | `NC(=O)Nc1ccc(C(=O)NCCn2cccc2)cc1` | -20.99 |
| 54 | `Cc1cc(C)nc(NC2CC(=O)N(C(C)(C)C)C2)n1` (centres undefined) | -5.393 |
| 55 | `CC(C)[C@H]1CN(Cc2ccccn2)C[C@@H]1NC(=O)CC1CCC1` | -2.608 |
| 56 | `O=C(NCC1CCCN(C(=O)NCCc2ccccc2)C1)c1ccco1` (centres undefined) | -6.214 |
| 57 | `CCOCC(=O)NCCn1ccc(-c2ccccn2)n1` | -6.807 |
| 58 | `COCC(C)(O)CNC(=O)c1cc(-c2cc(OC)ccc2OC)nn1C` (centres undefined) | -1.191 |
| 59 | `Cc1cnn(CCNCC(=O)Nc2ccc(Br)cn2)c1` | -19.78 |
| 60 | `CC1CN(C)CCN1C(=O)Nc1nc(-c2ccco2)cs1` (centres undefined) | -3.726 |
| 61 | `Cc1cc(C)n(CC(C)NC(=O)C2(c3ccccc3F)CC2)n1` (centres undefined) | -7.622 |
| 62 | `COc1cc(C2(C(=O)NC3CCN(C4CC4)CC3)CC2)ccc1C` | 6.969 |
| 63 | `CN(C)CC1CSCCCN1S(=O)(=O)Cc1ccc(C(F)(F)F)cc1` (centres undefined) | -2.99 |
| 64 | `Cn1c(CN2CCC(O)CC2)nnc1C1CCCN(c2ccncc2)C1` (centres undefined) | 6.611 |
| 65 | `O=c1c(NCCO)c(N2CCN(c3ccccc3)CC2)c1=O` | -9.449 |
| 66 | `O=C(CN1CCCCCC1)NCCSc1cnn[nH]1` | -1.487 |
| 67 | `O=C(O)c1ccc(OC2CCOCC2)cc1` | 1.524 |
| 68 | `CN(Cc1ccncc1)C(=O)[C@H]1CSCN1C(=O)OC(C)(C)C` | -13.25 |
| 69 | `c1cnc2c(c1)cc([C@@H]1CCCO1)n2CCN1CCOCC1` | 2.128 |
| 70 | `Cc1ccc(CN(Cc2ccccn2)C(=O)CCC2CCCN(C)C2)s1` (centres undefined) | -17.81 |
| 71 | `O=C(C1=CCCCC1)N1CCC2(CC1)COC(COc1ccccn1)C2` (centres undefined) | 14.06 |
| 72 | `CS(=O)(=O)N1CC2(CCN(C(=O)c3ccncc3)CC2)c2ccccc21` | -5.273 |
| 73 | `CC(C)c1noc(CNc2ccc(OC(F)F)cc2OC(F)F)n1` | 19.39 |
| 74 | `Cc1nn(C)c(C)c1C1COCCN1c1ncnc2c(C)cccc12` (centres undefined) | 7.105 |
| 75 | `CC(=O)NCCc1ncnn1-c1ccc(F)c(Cl)c1` | -4.096 |
| 76 | `CN(C)CCCN(Cc1cnn(C)c1)Cc1ccco1` | -8.303 |
| 77 | `Cc1cccc(N(C)S(=O)(=O)c2cc(C(=O)O)cs2)c1C` | 4.206 |
| 78 | `Cc1nc(Nc2ncccn2)cc(C2CCN(CC(C)C)C2)n1` (centres undefined) | -8.349 |

The first 7 entries again:

{"compound": "CC(=O)N1CCCCC1c1nc(C)cc(-c2ccccc2C(=O)O)n1", "stereo": "centres undefined", "effect": -6.502}
{"compound": "O=C(Cc1ccc(F)cc1)NCCNS(=O)(=O)C1CCCC1", "effect": -4.101}
{"compound": "CC(NC(=O)NC1CCN(CC2CCCC2)CC1)c1nccs1", "stereo": "centres undefined", "effect": 3.764}
{"compound": "CC(C#N)CSc1ccccc1NCC(=O)NCc1cccs1", "stereo": "centres undefined", "effect": -15.36}
{"compound": "O=C1Nc2ccccc2NC12CCN(c1cccc(C(F)(F)F)n1)CC2", "effect": 18.21}
{"compound": "Cc1ccc2cc(C(=O)NCCN3CCS(=O)(=O)CC3)c(C)nc2c1", "effect": 2.803}
{"compound": "CN(Cc1cc2c(cc1OC(F)F)OCO2)Cc1nccn1C", "effect": -9.634}